# Article PMC5613952
# Sequences of proteins named here, by UniProt entry; tags and fusion partners are left off.
# UniProt P46937: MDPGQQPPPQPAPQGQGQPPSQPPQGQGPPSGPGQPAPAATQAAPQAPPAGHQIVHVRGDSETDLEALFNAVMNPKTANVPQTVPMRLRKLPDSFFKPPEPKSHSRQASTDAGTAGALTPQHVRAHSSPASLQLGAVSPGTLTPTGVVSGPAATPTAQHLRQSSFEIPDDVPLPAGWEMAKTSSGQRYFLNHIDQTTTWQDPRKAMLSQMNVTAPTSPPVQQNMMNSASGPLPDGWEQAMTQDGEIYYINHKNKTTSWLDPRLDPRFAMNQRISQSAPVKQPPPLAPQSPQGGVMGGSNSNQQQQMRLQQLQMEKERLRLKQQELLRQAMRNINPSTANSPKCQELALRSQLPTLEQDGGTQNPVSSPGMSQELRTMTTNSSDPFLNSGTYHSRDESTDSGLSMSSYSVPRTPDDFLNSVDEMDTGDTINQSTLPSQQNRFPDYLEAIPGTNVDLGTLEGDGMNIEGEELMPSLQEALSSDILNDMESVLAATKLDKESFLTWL
# UniProt O60264: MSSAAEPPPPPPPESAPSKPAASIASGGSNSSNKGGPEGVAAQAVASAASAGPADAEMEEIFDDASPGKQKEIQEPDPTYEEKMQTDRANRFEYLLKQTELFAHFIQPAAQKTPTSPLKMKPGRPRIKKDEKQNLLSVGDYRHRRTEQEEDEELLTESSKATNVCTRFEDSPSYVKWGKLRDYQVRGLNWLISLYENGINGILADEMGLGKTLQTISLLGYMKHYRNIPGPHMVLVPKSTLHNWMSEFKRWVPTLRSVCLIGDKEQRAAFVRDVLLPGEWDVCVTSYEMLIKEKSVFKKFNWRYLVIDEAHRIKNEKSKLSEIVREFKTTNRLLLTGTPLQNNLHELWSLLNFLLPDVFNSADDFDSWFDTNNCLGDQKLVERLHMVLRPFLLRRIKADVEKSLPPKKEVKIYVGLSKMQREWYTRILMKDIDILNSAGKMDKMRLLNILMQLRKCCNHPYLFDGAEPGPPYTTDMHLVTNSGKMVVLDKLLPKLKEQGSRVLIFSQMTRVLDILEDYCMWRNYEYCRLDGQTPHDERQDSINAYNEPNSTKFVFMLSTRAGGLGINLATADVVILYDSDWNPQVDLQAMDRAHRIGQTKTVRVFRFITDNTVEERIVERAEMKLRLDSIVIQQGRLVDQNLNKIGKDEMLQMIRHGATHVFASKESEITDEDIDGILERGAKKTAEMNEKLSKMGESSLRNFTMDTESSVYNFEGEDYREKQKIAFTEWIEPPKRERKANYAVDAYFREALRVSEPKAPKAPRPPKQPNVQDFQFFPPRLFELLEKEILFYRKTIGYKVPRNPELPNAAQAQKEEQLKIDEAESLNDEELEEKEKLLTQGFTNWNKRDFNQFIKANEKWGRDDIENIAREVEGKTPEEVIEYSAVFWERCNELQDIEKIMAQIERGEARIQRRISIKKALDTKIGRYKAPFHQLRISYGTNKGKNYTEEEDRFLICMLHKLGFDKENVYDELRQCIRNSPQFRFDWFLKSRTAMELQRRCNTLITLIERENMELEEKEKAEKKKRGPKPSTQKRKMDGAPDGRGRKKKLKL
# UniProt P45973: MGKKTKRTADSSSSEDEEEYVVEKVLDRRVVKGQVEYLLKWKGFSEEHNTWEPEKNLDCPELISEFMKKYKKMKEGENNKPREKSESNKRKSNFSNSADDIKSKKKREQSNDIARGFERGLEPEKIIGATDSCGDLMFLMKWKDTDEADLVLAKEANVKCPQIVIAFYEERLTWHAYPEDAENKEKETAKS
# UniProt Q14839: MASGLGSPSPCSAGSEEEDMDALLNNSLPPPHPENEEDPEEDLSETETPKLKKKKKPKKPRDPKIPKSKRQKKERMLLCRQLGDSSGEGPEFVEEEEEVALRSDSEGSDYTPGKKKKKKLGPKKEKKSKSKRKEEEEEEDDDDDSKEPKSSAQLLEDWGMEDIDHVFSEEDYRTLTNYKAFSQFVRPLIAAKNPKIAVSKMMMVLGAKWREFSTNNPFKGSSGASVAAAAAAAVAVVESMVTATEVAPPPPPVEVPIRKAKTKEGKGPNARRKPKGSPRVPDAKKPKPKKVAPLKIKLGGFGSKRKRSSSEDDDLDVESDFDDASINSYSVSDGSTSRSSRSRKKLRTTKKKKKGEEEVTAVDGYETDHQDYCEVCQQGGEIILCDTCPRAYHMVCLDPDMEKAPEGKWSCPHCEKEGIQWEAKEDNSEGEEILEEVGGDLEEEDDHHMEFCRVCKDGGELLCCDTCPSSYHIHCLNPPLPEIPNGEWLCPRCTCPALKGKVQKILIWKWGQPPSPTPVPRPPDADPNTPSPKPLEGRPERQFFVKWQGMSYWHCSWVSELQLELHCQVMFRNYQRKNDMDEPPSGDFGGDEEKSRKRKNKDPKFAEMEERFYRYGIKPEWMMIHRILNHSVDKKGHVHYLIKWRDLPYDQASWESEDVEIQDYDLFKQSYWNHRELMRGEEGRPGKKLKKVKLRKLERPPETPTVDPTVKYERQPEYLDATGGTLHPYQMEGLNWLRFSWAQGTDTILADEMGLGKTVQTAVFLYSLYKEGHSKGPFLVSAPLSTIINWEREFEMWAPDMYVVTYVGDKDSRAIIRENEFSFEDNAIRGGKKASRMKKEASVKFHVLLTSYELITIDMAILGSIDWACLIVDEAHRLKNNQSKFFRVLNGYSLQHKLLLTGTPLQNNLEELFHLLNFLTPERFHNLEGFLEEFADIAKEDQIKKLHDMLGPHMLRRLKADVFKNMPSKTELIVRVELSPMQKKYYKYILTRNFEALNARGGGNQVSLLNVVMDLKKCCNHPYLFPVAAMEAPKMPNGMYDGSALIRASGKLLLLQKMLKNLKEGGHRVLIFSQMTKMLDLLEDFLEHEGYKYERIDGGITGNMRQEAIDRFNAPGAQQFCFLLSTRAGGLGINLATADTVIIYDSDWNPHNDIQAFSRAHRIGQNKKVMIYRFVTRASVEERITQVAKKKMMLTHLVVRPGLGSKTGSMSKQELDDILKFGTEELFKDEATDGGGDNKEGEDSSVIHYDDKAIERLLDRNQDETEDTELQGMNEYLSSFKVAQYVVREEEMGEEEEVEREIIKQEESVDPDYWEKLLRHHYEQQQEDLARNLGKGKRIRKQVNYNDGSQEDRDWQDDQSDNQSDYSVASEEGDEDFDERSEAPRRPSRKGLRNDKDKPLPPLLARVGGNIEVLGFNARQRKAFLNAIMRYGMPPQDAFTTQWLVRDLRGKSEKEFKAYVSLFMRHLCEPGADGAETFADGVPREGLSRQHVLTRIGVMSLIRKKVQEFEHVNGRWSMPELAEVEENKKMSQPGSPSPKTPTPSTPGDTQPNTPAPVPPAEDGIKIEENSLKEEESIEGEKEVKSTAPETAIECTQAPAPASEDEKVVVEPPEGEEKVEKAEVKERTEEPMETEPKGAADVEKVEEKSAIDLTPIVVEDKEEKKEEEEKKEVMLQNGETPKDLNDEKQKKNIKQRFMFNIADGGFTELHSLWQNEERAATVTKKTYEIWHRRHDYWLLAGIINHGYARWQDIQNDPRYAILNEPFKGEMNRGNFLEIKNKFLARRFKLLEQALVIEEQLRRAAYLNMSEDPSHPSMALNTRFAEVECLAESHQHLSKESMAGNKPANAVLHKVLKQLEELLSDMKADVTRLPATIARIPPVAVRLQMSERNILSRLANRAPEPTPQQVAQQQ
# No constants are given. Whether binding was seen depends on the method and setting. Binding seen in cells or lysates may run through a third protein. These calls come from enrichment with a bait or labelling near it, and not all partners need be listed. Tags and fused reporters may be left off the sequences shown.
# Biological target: T1, MTA3 with V5 tag (MTA3V5), metastasis-associated protein 3 (UniProt Q9BTC8)
# T1 sequence: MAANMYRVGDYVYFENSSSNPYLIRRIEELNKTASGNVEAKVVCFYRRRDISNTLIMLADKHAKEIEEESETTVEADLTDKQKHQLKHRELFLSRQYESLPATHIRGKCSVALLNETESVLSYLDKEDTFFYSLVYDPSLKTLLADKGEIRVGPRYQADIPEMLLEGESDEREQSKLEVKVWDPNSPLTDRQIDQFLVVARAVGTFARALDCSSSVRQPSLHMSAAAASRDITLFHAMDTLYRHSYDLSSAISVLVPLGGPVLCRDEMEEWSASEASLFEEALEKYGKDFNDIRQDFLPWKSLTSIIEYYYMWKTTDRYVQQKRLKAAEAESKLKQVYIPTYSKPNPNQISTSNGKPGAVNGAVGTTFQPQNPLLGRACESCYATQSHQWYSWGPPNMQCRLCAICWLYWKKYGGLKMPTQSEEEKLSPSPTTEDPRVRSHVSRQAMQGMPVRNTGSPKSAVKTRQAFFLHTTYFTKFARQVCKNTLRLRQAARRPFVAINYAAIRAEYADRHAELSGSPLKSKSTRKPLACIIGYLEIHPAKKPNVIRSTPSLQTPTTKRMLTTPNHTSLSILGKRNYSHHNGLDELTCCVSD
# Test: affinity purification with mass spectrometry; 25 mg whole protein from HTR8/SVneo cells overexpressing MTA3V5 (2 biological samples), 10 ug MTA3 antibody or non-specific IgG, magnetic beads, on-bead trypsin digestion, LC-MS/MS (Q-Exactive), Mascot/Scaffold at 1% FDR
row,binding,Substance
1,binds,YAP1 (from UniProt P46937 1-504)
2,binds,SMARCA5 (from UniProt O60264 1-1052)
3,binds,CBX5 (from UniProt P45973 1-191)
4,binds,CHD4 (from UniProt Q14839 1-1912)
